{
  "sequences": {"note": "By UniProt entry, the sequences of proteins in these tests, tags left out.", "UniProt Q03164, whole entry, looked up": "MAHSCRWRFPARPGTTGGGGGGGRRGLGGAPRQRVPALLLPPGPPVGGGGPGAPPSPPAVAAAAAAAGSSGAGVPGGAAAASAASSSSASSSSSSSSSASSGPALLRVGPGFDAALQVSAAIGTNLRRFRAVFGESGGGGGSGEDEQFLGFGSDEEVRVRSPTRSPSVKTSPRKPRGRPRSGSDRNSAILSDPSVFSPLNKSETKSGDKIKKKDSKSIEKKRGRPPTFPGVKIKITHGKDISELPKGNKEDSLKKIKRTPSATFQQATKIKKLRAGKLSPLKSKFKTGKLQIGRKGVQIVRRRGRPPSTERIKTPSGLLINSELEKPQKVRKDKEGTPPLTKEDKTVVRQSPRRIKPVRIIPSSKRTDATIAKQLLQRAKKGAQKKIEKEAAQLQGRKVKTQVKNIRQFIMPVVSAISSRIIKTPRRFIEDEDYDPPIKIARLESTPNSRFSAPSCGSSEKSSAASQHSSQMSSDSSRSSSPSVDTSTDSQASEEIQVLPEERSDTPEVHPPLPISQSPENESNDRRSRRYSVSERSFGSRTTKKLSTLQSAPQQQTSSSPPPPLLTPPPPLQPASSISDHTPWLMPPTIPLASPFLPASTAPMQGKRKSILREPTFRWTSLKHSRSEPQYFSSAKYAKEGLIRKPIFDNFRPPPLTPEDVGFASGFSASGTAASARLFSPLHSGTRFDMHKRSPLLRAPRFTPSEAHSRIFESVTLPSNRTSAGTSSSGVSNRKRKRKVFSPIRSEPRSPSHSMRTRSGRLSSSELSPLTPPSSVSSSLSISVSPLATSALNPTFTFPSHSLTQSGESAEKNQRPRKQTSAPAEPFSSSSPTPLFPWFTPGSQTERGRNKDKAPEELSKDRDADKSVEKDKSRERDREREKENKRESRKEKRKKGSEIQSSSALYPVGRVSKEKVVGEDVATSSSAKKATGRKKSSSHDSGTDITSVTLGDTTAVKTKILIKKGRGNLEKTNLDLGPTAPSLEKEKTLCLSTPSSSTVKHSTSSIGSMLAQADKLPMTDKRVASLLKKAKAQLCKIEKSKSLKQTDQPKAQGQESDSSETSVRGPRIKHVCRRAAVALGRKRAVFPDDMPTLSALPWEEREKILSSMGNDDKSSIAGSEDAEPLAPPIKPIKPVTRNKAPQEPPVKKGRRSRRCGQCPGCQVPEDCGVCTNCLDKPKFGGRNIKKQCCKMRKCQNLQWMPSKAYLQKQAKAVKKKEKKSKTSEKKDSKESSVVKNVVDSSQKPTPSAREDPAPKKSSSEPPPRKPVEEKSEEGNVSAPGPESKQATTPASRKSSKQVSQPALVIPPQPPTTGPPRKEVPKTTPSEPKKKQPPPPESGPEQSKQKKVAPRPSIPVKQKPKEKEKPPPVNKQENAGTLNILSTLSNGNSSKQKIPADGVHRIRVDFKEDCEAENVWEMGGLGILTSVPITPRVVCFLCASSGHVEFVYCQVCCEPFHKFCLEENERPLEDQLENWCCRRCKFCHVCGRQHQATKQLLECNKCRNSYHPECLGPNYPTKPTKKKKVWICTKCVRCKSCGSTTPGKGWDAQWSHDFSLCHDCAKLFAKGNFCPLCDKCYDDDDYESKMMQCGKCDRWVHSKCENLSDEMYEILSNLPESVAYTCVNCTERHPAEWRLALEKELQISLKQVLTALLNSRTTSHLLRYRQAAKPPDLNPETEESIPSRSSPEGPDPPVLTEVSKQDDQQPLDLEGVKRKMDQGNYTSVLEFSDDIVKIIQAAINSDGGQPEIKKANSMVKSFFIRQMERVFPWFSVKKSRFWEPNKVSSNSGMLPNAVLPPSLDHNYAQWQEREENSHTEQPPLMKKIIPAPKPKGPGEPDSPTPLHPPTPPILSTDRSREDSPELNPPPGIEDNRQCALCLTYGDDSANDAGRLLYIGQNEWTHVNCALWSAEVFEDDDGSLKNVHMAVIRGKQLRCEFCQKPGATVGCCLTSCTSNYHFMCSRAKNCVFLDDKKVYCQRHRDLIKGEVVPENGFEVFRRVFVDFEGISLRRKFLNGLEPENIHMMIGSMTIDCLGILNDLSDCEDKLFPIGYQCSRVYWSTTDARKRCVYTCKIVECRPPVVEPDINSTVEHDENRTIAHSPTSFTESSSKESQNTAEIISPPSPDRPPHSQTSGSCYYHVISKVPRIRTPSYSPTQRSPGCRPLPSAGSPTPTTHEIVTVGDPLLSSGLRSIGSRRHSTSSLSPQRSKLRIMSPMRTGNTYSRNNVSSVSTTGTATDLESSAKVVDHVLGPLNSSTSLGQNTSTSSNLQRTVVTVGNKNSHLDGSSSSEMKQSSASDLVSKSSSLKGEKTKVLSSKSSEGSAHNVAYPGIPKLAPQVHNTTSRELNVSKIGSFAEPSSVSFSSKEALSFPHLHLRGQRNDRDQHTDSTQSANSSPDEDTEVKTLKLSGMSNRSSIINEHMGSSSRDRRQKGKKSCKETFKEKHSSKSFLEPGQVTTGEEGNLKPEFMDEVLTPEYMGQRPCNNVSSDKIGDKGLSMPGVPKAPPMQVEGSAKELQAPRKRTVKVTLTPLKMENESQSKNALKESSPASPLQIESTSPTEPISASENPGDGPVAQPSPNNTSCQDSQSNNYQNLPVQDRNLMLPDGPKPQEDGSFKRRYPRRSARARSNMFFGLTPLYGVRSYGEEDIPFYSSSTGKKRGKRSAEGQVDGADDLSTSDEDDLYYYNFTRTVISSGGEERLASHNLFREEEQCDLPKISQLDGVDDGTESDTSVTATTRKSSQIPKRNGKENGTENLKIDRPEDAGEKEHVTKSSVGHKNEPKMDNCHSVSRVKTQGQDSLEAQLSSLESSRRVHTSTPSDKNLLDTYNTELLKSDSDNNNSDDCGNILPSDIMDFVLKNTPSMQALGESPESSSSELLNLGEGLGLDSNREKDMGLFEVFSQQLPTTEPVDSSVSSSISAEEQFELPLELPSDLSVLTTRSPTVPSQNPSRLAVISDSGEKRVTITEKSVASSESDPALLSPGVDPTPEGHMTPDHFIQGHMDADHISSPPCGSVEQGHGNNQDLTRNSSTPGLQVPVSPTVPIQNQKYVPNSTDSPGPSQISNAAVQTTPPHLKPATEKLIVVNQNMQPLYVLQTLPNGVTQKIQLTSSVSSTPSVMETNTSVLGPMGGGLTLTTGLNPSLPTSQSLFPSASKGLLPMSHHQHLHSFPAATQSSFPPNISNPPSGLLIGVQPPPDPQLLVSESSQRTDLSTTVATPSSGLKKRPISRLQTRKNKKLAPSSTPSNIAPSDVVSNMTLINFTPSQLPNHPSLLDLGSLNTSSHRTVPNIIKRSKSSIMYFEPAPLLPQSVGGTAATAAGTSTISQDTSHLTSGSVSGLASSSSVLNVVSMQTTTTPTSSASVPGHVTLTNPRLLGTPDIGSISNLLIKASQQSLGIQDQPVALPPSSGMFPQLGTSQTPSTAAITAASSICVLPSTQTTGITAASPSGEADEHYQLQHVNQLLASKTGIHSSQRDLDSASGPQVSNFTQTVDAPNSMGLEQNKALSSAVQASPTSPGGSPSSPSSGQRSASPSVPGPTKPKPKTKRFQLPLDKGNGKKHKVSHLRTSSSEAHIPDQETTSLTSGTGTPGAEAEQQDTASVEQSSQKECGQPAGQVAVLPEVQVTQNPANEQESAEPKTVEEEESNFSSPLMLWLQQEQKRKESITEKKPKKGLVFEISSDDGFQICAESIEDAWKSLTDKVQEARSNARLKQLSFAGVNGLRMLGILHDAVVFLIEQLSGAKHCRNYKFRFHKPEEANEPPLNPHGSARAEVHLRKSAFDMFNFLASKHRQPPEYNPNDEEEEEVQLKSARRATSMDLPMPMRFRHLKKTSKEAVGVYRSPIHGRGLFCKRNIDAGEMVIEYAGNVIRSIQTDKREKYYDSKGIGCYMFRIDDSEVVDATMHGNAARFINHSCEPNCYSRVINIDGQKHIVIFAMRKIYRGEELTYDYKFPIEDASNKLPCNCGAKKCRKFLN"},
  "source": "PubChem BioAssay AID2662",
  "about": "(National Center for Advancing Translational Sciences (NCATS), 2010)",
  "note": "Out of some 290,000 compounds screened, about 110 (0.038%) were called active. Inconclusive means that the source gave no clear call. Such entries were picked first, then a sample of the others. Calls come from the whole dose curve; as a rule, active = well fitted inhibition curve with a large enough effect in the polarisation, with a control signal flat (not every such curve was filed as active); inconclusive = small, poorly fitted or top-dose-only effect, or effect the other way, or a change in a side signal; inactive = no such curve, though single readings can be large or run the other way; the % refers to the polarisation. A potency beside an inconclusive call is a rough fit, not a confirmed value. A note “side channel” means that the fit belongs to a control or component signal, not to the main read-out. Potency is the fitted concentration of half-maximal effect.",
  "data": [
    {"target": "Histone-lysine N-methyltransferase 2A (Homo sapiens) (UniProt Q03164)", "assay": "qHTS Fluorescence Polarization Assay for Inhibitors of MLL CXXC domain - DNA interaction", "details": "MLL-CXXC / FITC-HOXA9 DNA fluorescence polarization; activity change, negative = inhibition: at 115 µM (top of the series)", "procedure,_shortened": "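Purified MLL-CXXC (added from a 7 uM solution) was preincubated 5 min at ambient with pinned compounds in 50 mM Tris-HCl pH 7.5, 50 mM NaCl, 1 mM DTT, 0.05% BSA. Fluorescein-labeled HOX-A9 DNA (50 nM solution) followed, 30 min, then polarization read.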", "values": [
      {"smiles": "Brc1c(CSc2nc3ccccc3s2)nc2ncccn12", "activity change, negative = inhibition": "inactive: 10.3%"},
      {"smiles": "CN(Cc1ccc(C(F)(F)F)cc1)C(=O)c1ccc(Oc2ccccc2)cc1", "Potency": "inconclusive: 35.5 µM [fluorescent, side channel, partial curve]"},
      {"smiles": "CCC(=C/c1sc2ccc3ccccc3c2[n+]1C)/C=C1\\Sc2ccc3ccccc3c2N1C", "Potency": "inconclusive: 12.6 µM [quencher, side channel, partial curve]"},
      {"smiles": "CCOc1ccc(/C=C/c2[nH]c(=O)[nH]c(=O)c2[N+](=O)[O-])cc1", "Potency": "inconclusive: 11.2 µM [inhibitor, partial curve]"},
      {"smiles": "COc1ccc(-n2c(-c3ccco3)nc3c(cnn3-c3ccc(C)cc3)c2=O)cc1", "activity change, negative = inhibition": "inactive: 2.44%"},
      {"smiles": "c1nnc2c3c4c(sc3ncn12)CCCC4", "activity change, negative = inhibition": "inactive: 4.87%"},
      {"smiles": "O=C(O)c1cccc([N+](=O)[O-])c1C(=O)Nc1nc2ccccc2s1", "activity change, negative = inhibition": "inactive: -3.79%"},
      {"smiles": "O=c1c2cc(-c3ccccc3)sc2ncn1/N=C/c1ccco1", "activity change, negative = inhibition": "inactive: 33.2%"},
      {"smiles": "CC(NC(=O)Nc1cccc(F)c1)c1ccc2c(c1)OCO2", "note": "(centres undefined)", "Potency": "inconclusive: 14.1 µM [quencher, side channel, single point]"},
      {"smiles": "Cc1ccc(Nc2nnc(SC/C(O)=C(\\C#N)c3nc4ccccc4[nH]3)s2)c(C)c1", "Potency": "inconclusive: 89.1 µM [inhibitor, single point]"},
      {"smiles": "CCC(C)(C)NC(=O)C(c1ccc(C)cc1)N(Cc1ccco1)C(=O)Cn1nnc2ccccc21", "note": "(centres undefined)", "activity change, negative = inhibition": "inactive: -1.6%"},
      {"smiles": "CC(=O)/C(=N\\Nc1ccc(Cl)cc1Cl)Sc1cccc2cccnc12", "Potency": "inconclusive: 31.6 µM [inhibitor, single point]"},
      {"smiles": "COc1ccc(NC(=S)Nc2cccc(S(=O)(=O)N3CCCCC3)c2)cc1", "Potency": "inconclusive: 35.5 µM [fluorescent, side channel, single point]"},
      {"smiles": "CNC(=O)c1sc(N2N=C3/C(=C/c4ccccc4)CCCC3C2c2ccccc2)nc1C", "note": "(centres undefined)", "Potency": "inconclusive: 63.1 µM [fluorescent, side channel, single point]"},
      {"smiles": "CN(C)c1nc(N)c2ncc(=S)[nH]c2n1", "Potency": "inconclusive: 7.08 µM [fluorescent, side channel, partial curve]"},
      {"smiles": "CC(=O)N(c1cccc(C)c1)C1SC(=O)N(c2ccccc2)C1=O", "note": "(centres undefined)", "activity change, negative = inhibition": "inactive: 23.8%"},
      {"smiles": "CCOC(=O)c1cn2nc(Oc3ccc(C(=O)OC)cc3)ccc2n1", "Potency": "inconclusive: 28.2 µM [quencher, side channel, partial curve]"},
      {"smiles": "Cc1ccc(S(=O)(=O)c2nc(S(C)(=O)=O)sc2N2CC(C)OC(C)C2)cc1", "note": "(centres undefined)", "Potency": "inconclusive: 70.8 µM [quencher, side channel, single point]"},
      {"smiles": "O=C(O)c1ccccc1SCC(=O)N1c2ccccc2Sc2ccccc21", "activity change, negative = inhibition": "inactive: -10.5%"},
      {"smiles": "O=C(CN1C(=O)c2ccccc2S1(=O)=O)c1ccc(F)c(F)c1", "Potency": "inconclusive: 31.6 µM [fluorescent, side channel, partial curve]"},
      {"smiles": "COc1ccc(CCNC(=O)c2cc(-c3ccccn3)nc3c(Cl)cccc23)cc1OC", "Potency": "inconclusive: 31.6 µM [fluorescent, side channel, partial curve]"},
      {"smiles": "Cc1c(CC(=O)NCCC(=O)O)c(=O)oc2cc3oc4c(c3cc12)CCCC4", "Potency": "inconclusive: 44.7 µM [fluorescent, side channel, single point]"},
      {"smiles": "COc1cc(/C=C2\\C(=N)N3N=CSC3=NC2=O)ccc1OS(=O)(=O)c1ccccc1[N+](=O)[O-]", "Potency": "inconclusive: 15.8 µM [quencher, side channel, single point]"},
      {"smiles": "CC(=O)c1ccc(NC(=O)Nc2cccc3ccccc23)cc1", "Potency": "inconclusive: 12.6 µM [fluorescent, side channel, partial curve]"},
      {"smiles": "COc1ccc(NC(=O)NC(C)c2ccc3c(c2)OCO3)c(OC)c1", "note": "(centres undefined)", "Potency": "inconclusive: 14.1 µM [fluorescent, side channel, single point]"},
      {"smiles": "Cc1ccc2c(Cl)cc(Cl)c(OCC(=O)NC(C)(C)C)c2n1", "Potency": "inconclusive: 17.8 µM [inhibitor, partial curve]"},
      {"smiles": "O=C(COc1ccc(Br)cc1)NCCNC(=O)c1ccccn1", "Potency": "inconclusive: 8.91 µM [fluorescent, side channel, single point]"},
      {"smiles": "COc1ccc(C(CC(=O)O)N2C(=O)CCC2=O)cc1", "note": "(centres undefined)", "Potency": "inconclusive: 70.8 µM [inhibitor, single point]"},
      {"smiles": "COc1ccc(NS(=O)(=O)c2cccs2)cn1", "activity change, negative = inhibition": "inactive: -3.08%"},
      {"smiles": "CCOC(=O)C1CCCN(C(=O)c2[nH]c3ccc(OC)cc3c2C)C1", "note": "(centres undefined)", "Potency": "inconclusive: 31.6 µM [fluorescent, partial curve]"},
      {"smiles": "O=C(/C=C/c1ccc(N2CCOCC2)cc1)c1ccccc1", "Potency": "inconclusive: 25.1 µM [fluorescent, side channel, partial curve]"},
      {"smiles": "Cc1ccc(S(=O)(=O)/N=C2/NC(=O)/C(=C/c3cc([N+](=O)[O-])ccc3O)S2)cc1", "Potency": "inconclusive: 31.6 µM [fluorescent, side channel, partial curve]"},
      {"smiles": "CS(=O)(=O)c1nc(-c2cccs2)cc(C(F)(F)F)n1", "Potency": "inconclusive: 14.1 µM [quencher, side channel, full curve]"},
      {"smiles": "CCN(CC)c1ccc(/C=C(\\C#N)C(=O)NCc2ccccc2)cc1", "Potency": "inconclusive: 31.6 µM [fluorescent, side channel, single point]"},
      {"smiles": "COc1ccc(CCNc2nc(C)cc(C)c2C#N)cc1OC", "Potency": "inconclusive: 15.8 µM [fluorescent, side channel, single point]"},
      {"smiles": "Cc1c(CN(C)C)c2c(n1Cc1ccccc1)C(=O)c1ccccc1-2", "Potency": "inconclusive: 31.6 µM [quencher, side channel, single point]"},
      {"smiles": "O=C(NNC1=Nc2cccc3cccc1c23)c1ccccc1Br", "Potency": "inconclusive: 17.8 µM [fluorescent, side channel, partial curve]"},
      {"smiles": "CCCN1C(=O)S/C(=C/c2ccc(N3CCOCC3)o2)C1=O", "Potency": "inconclusive: 15.8 µM [fluorescent, side channel, partial curve]"},
      {"smiles": "COc1cc(C(=O)NNC(=O)c2ccc(S(=O)(=O)N3CCCCC3)cc2)cc(OC)c1OC", "Potency": "inconclusive: 12.6 µM [fluorescent, side channel, full curve, poor fit]"}
    ]}
  ]
}
